These results are taken from patent publication US20140154261A1.

In assay [1] the target is T1, human CAPRIN-1 protein having the amino acid sequence of SEQ ID NO: 2 (human) (UniProt Q14444).
T1 sequence: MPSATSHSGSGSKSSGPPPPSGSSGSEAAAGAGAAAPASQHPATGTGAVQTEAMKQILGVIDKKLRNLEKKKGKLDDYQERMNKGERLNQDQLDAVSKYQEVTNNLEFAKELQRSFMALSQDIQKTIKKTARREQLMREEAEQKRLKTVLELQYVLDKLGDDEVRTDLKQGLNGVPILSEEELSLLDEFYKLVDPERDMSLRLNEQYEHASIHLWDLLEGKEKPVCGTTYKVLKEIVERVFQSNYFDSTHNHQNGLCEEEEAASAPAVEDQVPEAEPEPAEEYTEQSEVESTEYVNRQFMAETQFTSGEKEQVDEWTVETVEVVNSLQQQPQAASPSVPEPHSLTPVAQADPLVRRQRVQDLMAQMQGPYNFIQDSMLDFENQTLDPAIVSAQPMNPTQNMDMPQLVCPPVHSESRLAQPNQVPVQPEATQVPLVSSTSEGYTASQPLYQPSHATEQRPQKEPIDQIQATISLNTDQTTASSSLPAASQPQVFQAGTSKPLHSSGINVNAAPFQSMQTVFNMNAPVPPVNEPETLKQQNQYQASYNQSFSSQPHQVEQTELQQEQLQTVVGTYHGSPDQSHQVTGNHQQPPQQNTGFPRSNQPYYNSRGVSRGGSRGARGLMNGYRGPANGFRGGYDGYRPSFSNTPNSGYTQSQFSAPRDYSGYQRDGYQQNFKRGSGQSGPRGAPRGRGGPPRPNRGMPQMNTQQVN
As to the kind of experiment: ELISA, CAPRIN-1 protein coated on plate, hybridoma culture supernatant. On the technique in general: An ELISA detects its analyte on a solid surface through an enzyme-linked reagent.

In assay [2] the target is CAPRIN-1 protein on the cell surface of human cancer cell lines (human) (UniProt Q14444). As to the kind of experiment: flow cytometry on human breast cancer cell line MDA-MB-231V expressing CAPRIN-1, hybridoma supernatant.

Results are given in words; binding and its absence hold for the method and conditions named. Some entries that bind do so weakly or less than the wild type.

B1: mouse monoclonal antibody #1 (antibody, V domains shown)
VH: GGGLVQPGGSMRLSCVASGFTFSNSWFNWVRQSPEKGLEWVAEIRLTSDNYAIYYAESVKGRFTISRDDSKSSVYLQMNNLRAEDTGIYYCTRPETARATFAYWGQGTTVTVSS
VL: DVLMTQTPLSLPVSLGDQASISCRSSQSIVHSNGNTYLEWYLQKPGQSPKVLIYKVFNRFSGVPDRFSGSGSGTDFTLKISRVEAEDLGVYYCFQGSHVPRTFGGGTKLNQTG
As for B1, the binding result in assay [1] and in assay [2] was “binds” throughout.
